Reference: patent US20140142035A1, “METHODS AND COMPOSITIONS FOR MODULATING INSULIN REGULATION” (The Washington University, priority 2010, published 2014)

Tests used:
WT mice = assay: Plasma insulin 5 minutes after i.p. glucose with peptides, wild type mice; type: in vivo, mouse; details: atropine i.p. 15 minutes before
Protocol: (§1) WT and DT mice were fasted for 16-h (Fast). As indicated, some mice were then administered an intraperitoneal injection of glucose (1 g/kg) with vehicle alone (BSA), GIP alone, Xenin-25 alone (Xen) or GIP plus Xenin-25 (G+X). […] Five minutes after injection of glucose, blood was collected and plasma prepared for insulin assays.
(§2) WT and DT mice were fasted for 16-h (Fast). As indicated, some mice were then administered an intraperitoneal injection of glucose (1 g/kg) with vehicle alone (BSA), GIP alone, Xenin-25 alone (Xen) or GIP plus Xenin-25 (G+X). Five minutes later, blood was collected. Plasma was then prepared and assayed for insulin.
(§3) Activation of parasympathetic neurons that innervate the pancreas can increase glucose-mediated insulin release in vivo. […] Wild type and GIP/DT mice were fasted overnight and then administered glucose in combination with GIP plus Xenin-25 by intraperitoneal injection. […] Blood was collected and plasma prepared 5 minutes after the glucose injection. […] Subsets of parasympathetic neurons that innervate the islets release vasoactive intestinal polypeptide (VIP) and pituitary adenylate cyclase activating peptide (PACAP) when activated. N-terminally truncated forms of PACAP [PACAP(6-38) or PACAP(6-27)] are competitive inhibitors of both VIP receptors (VPAC1 and VPAC2) as well as the PACAP-specific receptor Pac.

GIP/DT mice = assay: Plasma insulin 5 minutes after i.p. glucose with peptides, GIP/DT mice; type: in vivo, mouse
Protocol: as §1, §2, §3

CN1[C@@H]2CC[C@H]1C[C@@H](OC(=O)C(CO)c1ccccc1)C2 (stereo partly drawn) [atropine]
effect on plasma insulin levels with GIP in the absence of Xenin-25 (WT mice): no effect on plasma insulin levels in either wild type or GIP/DT mice
inhibition of the increase in plasma insulin level (GIP/DT mice; GIP/DT mice given glucose with GIP plus Xenin-25, atropine 500 micrograms/kg i.p. 15 minutes before, P=0.04): 1.8 fold
effect on plasma insulin levels with GIP in the absence of Xenin-25 (GIP/DT mice; GIP/DT mice, atropine i.p. 15 minutes before): no effect on plasma insulin levels in either wild type or GIP/DT mice
